Data on 4 molecules can be found in paper PMC9345961.

These are yes or no findings as the source states them, for the method shown. In cells and extracts the contact can be indirect. Some binding calls cover weakened binding; strength is not graded here. For some of these results: Tags and fused reporters may be left off the sequences shown.

Test [1] deals with T1, Flag-IKKα (human) (UniProt O15111).
T1 sequence: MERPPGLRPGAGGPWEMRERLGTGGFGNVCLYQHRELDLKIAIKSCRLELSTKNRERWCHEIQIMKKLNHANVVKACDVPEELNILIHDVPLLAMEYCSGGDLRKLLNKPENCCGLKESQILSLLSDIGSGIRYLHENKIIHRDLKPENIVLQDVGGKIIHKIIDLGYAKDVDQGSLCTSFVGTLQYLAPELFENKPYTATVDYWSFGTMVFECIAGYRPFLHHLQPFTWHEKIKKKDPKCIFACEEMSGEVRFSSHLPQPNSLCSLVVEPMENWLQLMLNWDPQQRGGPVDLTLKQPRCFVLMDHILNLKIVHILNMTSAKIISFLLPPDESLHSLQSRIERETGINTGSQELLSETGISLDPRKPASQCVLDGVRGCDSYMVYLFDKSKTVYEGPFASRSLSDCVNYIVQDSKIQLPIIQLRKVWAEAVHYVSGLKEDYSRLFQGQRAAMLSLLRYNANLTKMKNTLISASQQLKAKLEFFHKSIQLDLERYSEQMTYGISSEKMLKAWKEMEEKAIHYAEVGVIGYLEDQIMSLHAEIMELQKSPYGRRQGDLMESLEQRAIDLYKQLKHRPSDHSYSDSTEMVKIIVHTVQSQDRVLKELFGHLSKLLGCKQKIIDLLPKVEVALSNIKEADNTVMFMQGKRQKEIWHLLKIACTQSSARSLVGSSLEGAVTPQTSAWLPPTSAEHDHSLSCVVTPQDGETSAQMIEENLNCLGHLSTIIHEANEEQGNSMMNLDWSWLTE
Kind of test: co-IP; HEK293T cotransfected, collected 48 h post-transfection; Pierce IP lysis buffer (1% NP-40, 25 mM Tris-HCl pH 7.4, 1 mM EDTA, 150 mM NaCl, 5% glycerol); Flag-M2 beads 6 h at 4 °C; immunoblot. For orientation: In western blotting, separated proteins are transferred to a membrane and probed.

For test [2], the target named is T2, endogenous IKKα (human (endogenous in HUVECs)) (UniProt O15111).
T2 sequence: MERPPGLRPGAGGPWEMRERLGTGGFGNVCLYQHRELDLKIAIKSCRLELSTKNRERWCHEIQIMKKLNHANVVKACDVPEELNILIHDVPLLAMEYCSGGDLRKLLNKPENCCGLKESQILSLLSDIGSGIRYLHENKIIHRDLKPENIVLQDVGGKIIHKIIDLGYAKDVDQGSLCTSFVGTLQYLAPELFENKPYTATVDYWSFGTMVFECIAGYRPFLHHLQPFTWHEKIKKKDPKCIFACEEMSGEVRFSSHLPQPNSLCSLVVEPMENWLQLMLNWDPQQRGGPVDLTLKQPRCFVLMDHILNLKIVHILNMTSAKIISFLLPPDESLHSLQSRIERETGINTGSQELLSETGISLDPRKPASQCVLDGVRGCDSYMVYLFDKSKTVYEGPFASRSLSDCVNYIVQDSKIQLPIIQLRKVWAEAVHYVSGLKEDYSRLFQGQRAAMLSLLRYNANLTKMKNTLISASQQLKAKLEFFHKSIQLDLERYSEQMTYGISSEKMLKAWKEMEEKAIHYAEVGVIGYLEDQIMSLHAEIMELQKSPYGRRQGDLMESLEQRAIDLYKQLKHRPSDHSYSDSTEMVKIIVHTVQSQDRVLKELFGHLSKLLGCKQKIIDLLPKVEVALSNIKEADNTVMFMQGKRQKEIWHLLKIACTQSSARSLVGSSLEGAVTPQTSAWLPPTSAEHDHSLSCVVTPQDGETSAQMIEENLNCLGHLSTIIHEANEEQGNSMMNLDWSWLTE
Kind of test: co-IP; normal HUVECs, both proteins endogenous; anti-IKKα antibody (CST 2682) with protein A/G Plus-Agarose, 6 h at 4 °C; immunoblot.

For test [3], the target named is T3, GST-fused IKKα SDD domain (human) (UniProt O15111).
T3 sequence: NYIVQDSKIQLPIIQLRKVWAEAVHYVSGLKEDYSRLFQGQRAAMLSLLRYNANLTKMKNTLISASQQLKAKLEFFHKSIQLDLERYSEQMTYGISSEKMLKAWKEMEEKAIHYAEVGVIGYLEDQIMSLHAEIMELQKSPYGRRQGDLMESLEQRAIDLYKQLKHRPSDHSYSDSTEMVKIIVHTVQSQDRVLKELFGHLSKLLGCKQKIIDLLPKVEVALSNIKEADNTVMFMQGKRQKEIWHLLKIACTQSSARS
Kind of test: pull-down; GST-fused truncation mutants coexpressed with the Flag-tagged partner in HEK293T; Pierce IP lysis buffer; glutathione sepharose 4B beads; immunoblot.

Test [4] has as its target T4, GST-IKKα (human), O15111.
T4 chain: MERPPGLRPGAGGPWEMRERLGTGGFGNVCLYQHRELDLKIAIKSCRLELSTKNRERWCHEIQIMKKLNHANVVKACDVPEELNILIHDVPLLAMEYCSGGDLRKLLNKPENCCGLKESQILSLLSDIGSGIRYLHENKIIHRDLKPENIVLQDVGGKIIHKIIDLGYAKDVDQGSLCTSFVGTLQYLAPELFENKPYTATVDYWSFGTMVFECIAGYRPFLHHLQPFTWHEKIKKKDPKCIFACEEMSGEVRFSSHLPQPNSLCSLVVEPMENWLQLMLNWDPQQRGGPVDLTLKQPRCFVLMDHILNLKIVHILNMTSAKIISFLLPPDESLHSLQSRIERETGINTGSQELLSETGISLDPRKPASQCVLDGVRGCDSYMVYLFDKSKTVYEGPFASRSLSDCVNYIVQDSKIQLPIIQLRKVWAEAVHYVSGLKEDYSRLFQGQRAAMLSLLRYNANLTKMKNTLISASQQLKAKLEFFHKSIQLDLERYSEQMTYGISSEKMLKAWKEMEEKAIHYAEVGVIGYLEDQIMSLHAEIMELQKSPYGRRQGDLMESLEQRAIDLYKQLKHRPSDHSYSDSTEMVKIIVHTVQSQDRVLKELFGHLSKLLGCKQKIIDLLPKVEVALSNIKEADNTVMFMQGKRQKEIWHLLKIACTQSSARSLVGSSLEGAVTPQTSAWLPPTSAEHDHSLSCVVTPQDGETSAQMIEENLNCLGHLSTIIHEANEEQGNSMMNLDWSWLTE
Kind of test: co-IP; HEK293T cotransfected with GST-IKKα and Flag-IKKα (WT, K296R, S176/180A) or IKKβ; test of dimerisation (Supplementary Fig. 5k). The following applies: remark: other sources report otherwise.

B1: HECTD3 (exogenous, no tag named) (enzyme, UniProt Q5T447 1-861)
chain: MAGPGPGAVLESPRQLLGRVRFLAEAARSLRAGRPLPAALAFVPREVLYKLYKDPAGPSRVLLPVWEAEGLGLRVGAAGPAPGTGSGPLRAARDSIELRRGACVRTTGEELCNGHGLWVKLTKEQLAEHLGDCGLQEGWLLVCRPAEGGARLVPIDTPNHLQRQQQLFGVDYRPVLRWEQVVDLTYSHRLGSRPQPAEAYAEAVQRLLYVPPTWTYECDEDLIHFLYDHLGKEDENLGSVKQYVESIDVSSYTEEFNVSCLTDSNADTYWESDGSQCQHWVRLTMKKGTIVKKLLLTVDTTDDNFMPKRVVVYGGEGDNLKKLSDVSIDETLIGDVCVLEDMTVHLPIIEIRIVECRDDGIDVRLRGVKIKSSRQRELGLNADLFQPTSLVRYPRLEGTDPEVLYRRAVLLQRFIKILDSVLHHLVPAWDHTLGTFSEIKQVKQFLLLSRQRPGLVAQCLRDSESSKPSFMPRLYINRRLAMEHRACPSRDPACKNAVFTQVYEGLKPSDKYEKPLDYRWPMRYDQWWECKFIAEGIIDQGGGFRDSLADMSEELCPSSADTPVPLPFFVRTANQGNGTGEARDMYVPNPSCRDFAKYEWIGQLMGAALRGKEFLVLALPGFVWKQLSGEEVSWSKDFPAVDSVLVKLLEVMEGMDKETFEFKFGKELTFTTVLSDQQVVELIPGGAGIVVGYGDRSRFIQLVQKARLEESKEQVAAMQAGLLKVVPQAVLDLLTWQELEKKVCGDPEVTVDALRKLTRFEDFEPSDSRVQYFWEALNNFTNEDRSRFLRFVTGRSRLPARIYIYPDKLGYETTDALPESSTCSSTLFLPHYASAKVCEEKLRYAAYNCVAIDTDMSPWEE
B1: the binding entry in test [1] is “binds”.

B2: endogenous HECTD3 (enzyme, UniProt Q5T447 1-861)
chain: MAGPGPGAVLESPRQLLGRVRFLAEAARSLRAGRPLPAALAFVPREVLYKLYKDPAGPSRVLLPVWEAEGLGLRVGAAGPAPGTGSGPLRAARDSIELRRGACVRTTGEELCNGHGLWVKLTKEQLAEHLGDCGLQEGWLLVCRPAEGGARLVPIDTPNHLQRQQQLFGVDYRPVLRWEQVVDLTYSHRLGSRPQPAEAYAEAVQRLLYVPPTWTYECDEDLIHFLYDHLGKEDENLGSVKQYVESIDVSSYTEEFNVSCLTDSNADTYWESDGSQCQHWVRLTMKKGTIVKKLLLTVDTTDDNFMPKRVVVYGGEGDNLKKLSDVSIDETLIGDVCVLEDMTVHLPIIEIRIVECRDDGIDVRLRGVKIKSSRQRELGLNADLFQPTSLVRYPRLEGTDPEVLYRRAVLLQRFIKILDSVLHHLVPAWDHTLGTFSEIKQVKQFLLLSRQRPGLVAQCLRDSESSKPSFMPRLYINRRLAMEHRACPSRDPACKNAVFTQVYEGLKPSDKYEKPLDYRWPMRYDQWWECKFIAEGIIDQGGGFRDSLADMSEELCPSSADTPVPLPFFVRTANQGNGTGEARDMYVPNPSCRDFAKYEWIGQLMGAALRGKEFLVLALPGFVWKQLSGEEVSWSKDFPAVDSVLVKLLEVMEGMDKETFEFKFGKELTFTTVLSDQQVVELIPGGAGIVVGYGDRSRFIQLVQKARLEESKEQVAAMQAGLLKVVPQAVLDLLTWQELEKKVCGDPEVTVDALRKLTRFEDFEPSDSRVQYFWEALNNFTNEDRSRFLRFVTGRSRLPARIYIYPDKLGYETTDALPESSTCSSTLFLPHYASAKVCEEKLRYAAYNCVAIDTDMSPWEE
On to B2, for which the binding result in test [2] is “binds”.

B3: Flag-HECTD3 (enzyme, UniProt Q5T447 1-861)
chain: MAGPGPGAVLESPRQLLGRVRFLAEAARSLRAGRPLPAALAFVPREVLYKLYKDPAGPSRVLLPVWEAEGLGLRVGAAGPAPGTGSGPLRAARDSIELRRGACVRTTGEELCNGHGLWVKLTKEQLAEHLGDCGLQEGWLLVCRPAEGGARLVPIDTPNHLQRQQQLFGVDYRPVLRWEQVVDLTYSHRLGSRPQPAEAYAEAVQRLLYVPPTWTYECDEDLIHFLYDHLGKEDENLGSVKQYVESIDVSSYTEEFNVSCLTDSNADTYWESDGSQCQHWVRLTMKKGTIVKKLLLTVDTTDDNFMPKRVVVYGGEGDNLKKLSDVSIDETLIGDVCVLEDMTVHLPIIEIRIVECRDDGIDVRLRGVKIKSSRQRELGLNADLFQPTSLVRYPRLEGTDPEVLYRRAVLLQRFIKILDSVLHHLVPAWDHTLGTFSEIKQVKQFLLLSRQRPGLVAQCLRDSESSKPSFMPRLYINRRLAMEHRACPSRDPACKNAVFTQVYEGLKPSDKYEKPLDYRWPMRYDQWWECKFIAEGIIDQGGGFRDSLADMSEELCPSSADTPVPLPFFVRTANQGNGTGEARDMYVPNPSCRDFAKYEWIGQLMGAALRGKEFLVLALPGFVWKQLSGEEVSWSKDFPAVDSVLVKLLEVMEGMDKETFEFKFGKELTFTTVLSDQQVVELIPGGAGIVVGYGDRSRFIQLVQKARLEESKEQVAAMQAGLLKVVPQAVLDLLTWQELEKKVCGDPEVTVDALRKLTRFEDFEPSDSRVQYFWEALNNFTNEDRSRFLRFVTGRSRLPARIYIYPDKLGYETTDALPESSTCSSTLFLPHYASAKVCEEKLRYAAYNCVAIDTDMSPWEE
As for B3, the binding entry in test [3] was “binds”.

B4: Flag-IKKα, O15111 1-745 (enzyme)
chain: MERPPGLRPGAGGPWEMRERLGTGGFGNVCLYQHRELDLKIAIKSCRLELSTKNRERWCHEIQIMKKLNHANVVKACDVPEELNILIHDVPLLAMEYCSGGDLRKLLNKPENCCGLKESQILSLLSDIGSGIRYLHENKIIHRDLKPENIVLQDVGGKIIHKIIDLGYAKDVDQGSLCTSFVGTLQYLAPELFENKPYTATVDYWSFGTMVFECIAGYRPFLHHLQPFTWHEKIKKKDPKCIFACEEMSGEVRFSSHLPQPNSLCSLVVEPMENWLQLMLNWDPQQRGGPVDLTLKQPRCFVLMDHILNLKIVHILNMTSAKIISFLLPPDESLHSLQSRIERETGINTGSQELLSETGISLDPRKPASQCVLDGVRGCDSYMVYLFDKSKTVYEGPFASRSLSDCVNYIVQDSKIQLPIIQLRKVWAEAVHYVSGLKEDYSRLFQGQRAAMLSLLRYNANLTKMKNTLISASQQLKAKLEFFHKSIQLDLERYSEQMTYGISSEKMLKAWKEMEEKAIHYAEVGVIGYLEDQIMSLHAEIMELQKSPYGRRQGDLMESLEQRAIDLYKQLKHRPSDHSYSDSTEMVKIIVHTVQSQDRVLKELFGHLSKLLGCKQKIIDLLPKVEVALSNIKEADNTVMFMQGKRQKEIWHLLKIACTQSSARSLVGSSLEGAVTPQTSAWLPPTSAEHDHSLSCVVTPQDGETSAQMIEENLNCLGHLSTIIHEANEEQGNSMMNLDWSWLTE
In the case of B4, in test [4], the binding entry was “binds”.
